Assay results from paper PMC11704248, “Alternative splicing in the DBD linker region of p63 modulates binding to DNA and iASPP in vitro” (Cell Death & Disease, 2025).
Read-outs that look alike come from different tables or passages of the source. No constants are given. Whether binding was seen depends on the method and setting. Binding seen in cells or lysates may run through a third protein. Binding can be weak; no strength is given. For part of these data: Tags and fused reporters may be left off the sequences shown.

Chains of the proteins cited; added tags and fusions are not shown. Lines headed by an entry give the natural chain unless they say otherwise; changes in a name come on top.
UniProt Q13625: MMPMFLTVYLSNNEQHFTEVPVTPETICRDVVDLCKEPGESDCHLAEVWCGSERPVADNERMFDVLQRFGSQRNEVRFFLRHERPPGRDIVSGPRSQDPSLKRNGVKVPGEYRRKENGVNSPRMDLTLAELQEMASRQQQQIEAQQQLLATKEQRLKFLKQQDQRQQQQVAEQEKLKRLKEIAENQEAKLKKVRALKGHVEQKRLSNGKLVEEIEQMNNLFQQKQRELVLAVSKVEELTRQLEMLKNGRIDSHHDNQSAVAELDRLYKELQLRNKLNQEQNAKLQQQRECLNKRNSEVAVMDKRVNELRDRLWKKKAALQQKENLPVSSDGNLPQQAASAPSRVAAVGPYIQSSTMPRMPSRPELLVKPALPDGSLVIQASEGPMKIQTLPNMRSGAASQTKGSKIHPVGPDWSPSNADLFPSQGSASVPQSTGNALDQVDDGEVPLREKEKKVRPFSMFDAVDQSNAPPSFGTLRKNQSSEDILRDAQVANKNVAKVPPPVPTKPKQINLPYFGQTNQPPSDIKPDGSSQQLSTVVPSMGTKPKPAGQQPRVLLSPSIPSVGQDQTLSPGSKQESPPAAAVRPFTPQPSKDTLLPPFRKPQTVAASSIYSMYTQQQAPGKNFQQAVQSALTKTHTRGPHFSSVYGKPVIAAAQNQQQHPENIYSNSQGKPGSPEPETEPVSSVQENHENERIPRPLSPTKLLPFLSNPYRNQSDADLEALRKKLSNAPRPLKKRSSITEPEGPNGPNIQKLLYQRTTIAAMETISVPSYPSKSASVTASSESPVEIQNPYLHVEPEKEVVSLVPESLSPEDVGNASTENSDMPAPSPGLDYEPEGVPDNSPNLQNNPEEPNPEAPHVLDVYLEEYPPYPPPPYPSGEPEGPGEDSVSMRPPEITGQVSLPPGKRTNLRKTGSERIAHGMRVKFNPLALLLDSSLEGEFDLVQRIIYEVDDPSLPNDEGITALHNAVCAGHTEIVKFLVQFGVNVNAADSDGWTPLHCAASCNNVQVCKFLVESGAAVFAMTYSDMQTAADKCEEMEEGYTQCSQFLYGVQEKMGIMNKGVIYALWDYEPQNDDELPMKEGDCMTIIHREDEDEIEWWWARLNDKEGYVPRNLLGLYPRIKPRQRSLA

T1: GST-tagged iASPP CTD (UniProt Q8WUF5)
T1 sequence: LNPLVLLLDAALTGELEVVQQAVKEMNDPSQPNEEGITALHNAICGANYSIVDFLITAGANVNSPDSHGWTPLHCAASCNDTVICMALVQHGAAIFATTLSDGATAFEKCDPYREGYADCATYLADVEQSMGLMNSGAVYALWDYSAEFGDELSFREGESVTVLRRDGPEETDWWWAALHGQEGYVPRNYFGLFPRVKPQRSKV

B1: Myc-tagged ΔNp63α WT (protein, UniProt Q9H3D4-2 1-586)
chain: MLYLENNAQTQFSEPQYTNLGLLNSMDQQIQNGSSSTSPYNTDHAQNSVTAPSPYAQPSSTFDALSPSPAIPSNTDYPGPHSFDVSFQQSSTAKSATWTYSTELKKLYCQIAKTCPIQIKVMTPPPQGAVIRAMPVYKKAEHVTEVVKRCPNHELSREFNEGQIAPPSHLIRVEGNSHAQYVEDPITGRQSVLVPYEPPQVGTEFTTVLYNFMCNSSCVGGMNRRPILIIVTLETRDGQVLGRRCFEARICACPGRDRKADEDSIRKQQVSDSTKNGDGTKRPFRQNTHGIQMTSIKKRRSPDDELLYLPVRGRETYEMLLKIKESLELMQYLPQHTIETYRQQQQQQHQHLLQKQTSIQSPSSYGNSSPPLNKMNSMNKLPSVSQLINPQQRNALTPTTIPDGMGANIPMMGTHMPMAGDMNGLSPTQALPPPLSMPSTSHCTPPPPYPTDCSIVSFLARLGCSSCLDYFTTQGLTTIYQIEHYSMDDLASLKIPEQFRHAIWKGILDHRQLHEFSSPSHLLRTPSSASTVSVGSSETRGERVIDAVRFTLRQTISFPPRDEWNDFNFDMDARRNKQQRIKEEGE

Key:
Assay in all cases: pull-down; purified GST-tagged ASPP CTDs immobilised on magnetic glutathione agarose beads; N-terminally Myc-tagged prey in vitro translated in RRL; 3 h at 4 °C; 50 mM Tris pH 8.0, 150 mM NaCl, 0.1% Tween-20; WB with α-Myc; only the target purified
[1] = molecular target: T1, GST-tagged iASPP CTD
[2] = molecular target: GST-tagged ASPP2 CTD (UniProt Q13625)
[3] = molecular target: GST-tagged ASPP2 CTD (UniProt Q13625); remark: listed apart in the source

| Molecule | binding [1] | other results |
| --- | --- | --- |
| Myc-tagged ΔNp63α R279H | binds |  |
| Myc-tagged TAp63α | no binding |  |
| Myc-tagged ΔNp73α R268H | binds |  |
| Myc-tagged ΔNp63α R279H ΔExon8 | no binding |  |
| Myc-tagged ΔNp63α ΔExon8 (from UniProt Q9H3D4-2) |  | binding [2]: binds |
| B1 |  | binding [3]: binds |
